# According to PMC7862700:
# This is a selection; strong and weak results do not stand in their true shares. At the low end of the ranking the order means little.
# Target: SPI1 (UniProt P17947)
# Experiment: DAPPL (digital affinity profiling via proximity ligation, sequencing)
# Conditions: 10 mM Tris-HCl pH 7.5, 50 mM NaCl, 1 mM DTT, 4% glycerol, room temperature, 30 min; GST-TFs on glutathione beads, 16-mer random dsDNA library, 0.1% …; high values mean tight binding; double strand, one strand shown; scale: fold enrichment (6-mer frequency, TF over GST control)
row,Sequence,binding signal
1,GGCGCG,0.656
2,GCGGAC,0.671
3,TAGGGG,0.849
4,ACCGTA,0.881
5,GGGAGC,0.384
6,ACTGTG,0.497
7,CCGGGA,0.464
8,TGCGGG,0.701
9,ACAGTG,0.499
10,GAGGAC,0.56
11,CGGCAG,0.768
12,CAGAGC,0.771
13,GGTAGC,0.735
14,GGGTAC,0.943
15,GGAACC,0.922
16,GGGCAG,0.539
17,GCATCA,0.74
18,TCGGAC,0.372
19,GAGTGT,0.545
20,TGAGGC,0.457

# Some of the entries so far, with tabs.
row	Sequence	binding signal
1	GGCGCG	0.656
7	CCGGGA	0.464

# More entries

row,Sequence,binding signal
1,CCAGCG,0.632
2,GTCGCA,0.809
3,TACAGT,0.873
4,CGTGAG,0.113
5,GTGAGG,0.279
6,AGCCTG,0.895
7,GACGCG,0.664
8,GCAGAC,0.743
9,GGGACG,0.466
10,TCGGTG,0.454
11,GAGGCC,0.407
12,GCGCAT,0.832
13,GGAGGC,0.218
14,GGACGC,0.385
15,TGTGGG,0.795
16,CAGTTT,0.801
17,GTCGGT,0.29
18,GGCGAT,0.842
19,ACAGAG,0.725
20,CAGTCC,0.657
